Results published in US20230302135A1 (ARIZONA BOARD OF REGENTS ON BEHALF OF THE UNIVERSITY OF …, published 2023).

Molecular target: T1, FITC-labeled recombinant human SDF-1 (human, UniProt P48061-2 22-89, limits assumed, FITC label (FluoReporter FITC Protein Labeling Kit); labelled residues not stated)
T1 construct: Bought from PeproTech and labelled with FITC; also called FITC-SDF-1; FITC-conjugated SDF-1
Assay: fluorescence microscopy of transfected hMSCs incubated with FITC-labeled SDF-1
Experimental: The labeling protocol was performed by the manufacturer's instructions.

B1: hCXCR4/BMP2Rs-HAR (receptor)
chain: MEGISIYTSDNYTEEMGSGDYDSMKEPCFREENANFNKIFLPTIYSTTTPAPRPPTPAPTIASQPLSLRPEACRPAAGGAVHTRGLDFACDIYIWAPLAGTCGVLLLSLVITLYCKLLELIGRGRYGAVYKGSLDERPVAVKVFSFANRQNFINEKNIYRVPLMEHDNIARFIVGDERVTADGRMEYLLVMEYYPNGSLCKYLSLHTSDWVSSCRLAHSVTRGLAYLHTELPRGDHYKPAISHRDLNSRNVLVKNDGTCVISDFGLSMRLTGNRLVRPGEEDNAAISEVGTIRYMAPEVLEGAVNLRDCESALKQVDMYALGLIYWEIFMRCTDLFPGESVPEYQMAFQTEVGNHPTFEDMQVLVSREKQRPKFPEAWKENSLAVRSLKETIEDCWDQDAEARLTAQCAEERMAELGGGSGGGSGGGSRTIAKQIQMVRQVGKGRYGEVWMGKWRGEKVAVKVFFTTEEASWFRETEIYQTVLMRHENILGFIAADIKGTGSWTQLYLITDYHENGSLYDFLKCATLDTRALLKLAYSAACGLCHLHTEIYGTQGKPAIAHRDLKSKNILIKKNGSCCIADLGLAVKFNSDTNEVDVPLNTRVGTKRYMAPEVLDESLNKNHFQPYIMADIYSFGLIIWEMARRCITGGIVEEYQLPYYNMVPSDPSYEDMREVVCVKRLRPIVSNRWNSDECLRAVLKLMSECWAHNPASRLTALRIKKTLAKMVESQDVKI
notes: Expressed on transfected human bone marrow MSCs; also called HAR-MSC CXCR4; HAR (CXCR4-BMP2RII/ALK3)
binding result: binds

B2: hCXCR4/Blank-HAR (receptor)
chain: MEGISIYTSDNYTEEMGSGDYDSMKEPCFREENANFNKIFLPTIYSTTTPAPRPPTPAPTIASQPLSLRPEACRPAAGGAVHTRGLDFACDIYIWAPLAGTCGVLLLSLVITLYC
binding result: binds
